Experiment [1] concerns the target α7 nicotinic acetylcholine receptor (rat (endogenous in rat brain)) (UniProt Q05941). As to the kind of experiment: co-IP; anti-α7nAChR antibody with protein A/G plus agarose overnight at 4 °C, blot for NR2A; hippocampal lysate of rats injected i.c.v. with TAT or TAT-α7-peptide; lysis buffer 50 mM Tris, 150 mM NaCl, 2 mM EDTA, 1% NP-40, 0.5% sodium deoxycholate, pH 7.4; control IgG.

Chains of the proteins cited; added tags and fusions are not shown. Residues count along the entry.
UniProt Q05941, residues 23-502: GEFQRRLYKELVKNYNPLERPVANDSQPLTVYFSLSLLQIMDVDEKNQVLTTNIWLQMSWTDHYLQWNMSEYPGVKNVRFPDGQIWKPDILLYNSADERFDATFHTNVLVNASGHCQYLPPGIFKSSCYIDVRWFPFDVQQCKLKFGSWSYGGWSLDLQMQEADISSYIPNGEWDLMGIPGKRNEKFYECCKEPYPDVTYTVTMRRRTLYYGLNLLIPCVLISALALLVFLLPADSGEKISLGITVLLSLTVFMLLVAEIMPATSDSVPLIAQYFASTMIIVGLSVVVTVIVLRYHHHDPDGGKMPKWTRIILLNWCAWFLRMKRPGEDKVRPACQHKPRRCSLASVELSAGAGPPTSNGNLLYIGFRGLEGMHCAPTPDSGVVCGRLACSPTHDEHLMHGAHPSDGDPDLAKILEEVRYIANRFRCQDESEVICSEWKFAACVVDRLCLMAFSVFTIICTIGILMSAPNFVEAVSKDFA

Experiment [2] shares this target. As to the kind of experiment: co-IP; anti-α7nAChR antibody with protein A/G plus agarose overnight at 4 °C, blot for NR2A; striatal lysate of rats injected i.c.v. with TAT or TAT-α7-peptide; lysis buffer 50 mM Tris, 150 mM NaCl, 2 mM EDTA, 1% NP-40, 0.5% sodium deoxycholate, pH 7.4; control IgG.

No constants are given. Whether binding was seen depends on the method and setting. In cells and extracts the contact can be indirect. Some results given as binding are weak or reduced against the parent protein; the word gives no strength.

On to “NR2A subunit of the NMDA receptor (from UniProt Q00959 23-1464)”, for which the binding result in experiment [1] and in experiment [2] was “binds” throughout.

The values above are taken from article PMC8256601.
